The list shows only some results of the screen, not a fair sample: it gathers tests that were run many times, whatever their T/C, doses with no T/C, and many T/C values between a quarter and a half above the control. Further doses and runs are listed elsewhere. T/C: endpoint of the treated group in % of that of the vehicle group. Some entries give survivors of the animals treated and no T/C: the source files T/C as zero there, which appears to mark a toxic dose or a test without result, not a measured value. Some survivor counts are full or nearly so, which does not show that the dose was tolerated: survival well below the control is almost never listed, so the zero probably covers shortened survival too. Survivors were counted at the toxicity check, usually on the fifth day, unless a day is given; later deaths do not show. Schedules are NCI's codes, read here as Q, the interval in days (D) or hours (H), X, the number of doses. Some doses were run more than once; their values stand side by side, smallest first. For survival time, this PubChem deposit counts one and a half times the control or more as active, and values a quarter to a half above the control carry no call in these data; other NCI protocols may use other cut-offs. Some T/C values carry the count of animals alive at the toxicity check (mostly the fifth day); where none is given, no animal had died by that day.
Tested on: L1210 leukemia ip in BDF1 mice, survival T/C
Experiment: NCI In Vivo Anticancer Drug Screen. Data for tumor model L1210 Leukemia (intraperitoneal) in B6D2F1 (BDF1) mice
Conditions: T/C endpoint: mean survival time, higher T/C = longer survival
[1] = dose: 100.0 mg/kg/injection, schedule: Q04DX003 (ip), vehicle: Klucel (hydroxypropylcellulose) (HPC)
[2] = dose: 400.0 mg/kg/injection, schedule: Q04DX003 (ip), vehicle: Klucel (hydroxypropylcellulose) (HPC)
[3] = dose: 400.0 mg/kg/injection, schedule: Q04DX003 (ip), vehicle: saline with Tween-80
[4] = dose: 100.0 mg/kg/injection, schedule: Q01DX009 (ip), vehicle: saline with Tween-80
[5] = dose: 400.0 mg/kg/injection, schedule: Q01DX009 (ip), vehicle: saline with Tween-80
[6] = dose: 400.0 mg/kg/injection, schedule: Q01DX005 (ip), vehicle: saline
[7] = dose: 200.0 mg/kg/injection, schedule: Q01DX009 (ip), vehicle: saline

Compound: CCCCc1c(N)nc(=S)[nH]c1C(=O)O
- survivor count [1]: 6 of 6
- survivor count [2]: 6 of 6

Compound: CCOC(=O)c1cnc(SCc2ccccc2)nc1Nc1ccccc1Cl
- survivor count [3]: 6 of 6

Compound: CC(=O)c1ccc(OC(=O)Nc2ccc(Cl)cc2)cc1
- T/C [4]: 86 [5 of 6 alive], 103 [4 of 6 alive], 112 % of control [2 of 3 alive]
- survivor count [4]: 2 of 3
- survivor count (dose: 200.0 mg/kg/injection, schedule: Q01DX009 (ip), vehicle: saline with Tween-80): 5 of 6 and 3 of 3
- survivor count [5]: 3 of 6 and 3 of 3
- survivor count [3]: 3 of 6

Compound: CC(=O)Nc1ccc(S(=O)(=O)N2CC2)cc1
- survivor count [6]: 2 of 4

Compound: CNc1n[n+](-c2ccccc2)no1
- survivor count (dose: 100.0 mg/kg/injection, schedule: Q01DX009 (ip), vehicle: saline): 0 of 6
- survivor count [7]: 0 of 6
- survivor count (dose: 200.0 mg/kg/injection, schedule: Q04DX003 (ip), vehicle: saline): 1 of 6
- survivor count (dose: 400.0 mg/kg/injection, schedule: Q04DX003 (ip), vehicle: saline): 0 of 6

Compound: Nc1nc(N)c(C=Nc2ccc(Cl)c(Cl)c2)c(Nc2ccc(Cl)c(Cl)c2)n1
- survivor count (dose: 50.0 mg/kg/injection, schedule: Q01DX001 (ip), vehicle: carboxymethylcellulose (CMC)): 4 of 4
- survivor count (dose: 100.0 mg/kg/injection, schedule: Q01DX001 (ip), vehicle: carboxymethylcellulose (CMC)): 4 of 4
- survivor count (dose: 200.0 mg/kg/injection, schedule: Q01DX001 (ip), vehicle: carboxymethylcellulose (CMC)): 2 of 4
- survivor count (dose: 400.0 mg/kg/injection, schedule: Q01DX001 (ip), vehicle: carboxymethylcellulose (CMC)): 0 of 4

Compound: c1ccc2c(c1)Cc1ccccc1CN(CCNC1=NCCN1)C2
- survivor count [4]: 3 of 6
- survivor count (dose: 200.0 mg/kg/injection, schedule: Q04DX003 (ip), vehicle: saline with Tween-80): 0 of 6
- survivor count [3]: 0 of 6

Compound: CC(C)NCCOC(=O)c1ccc(N)cc1
- survivor count (dose: 300.0 mg/kg/injection, schedule: Q01DX001 (ip), vehicle: saline): 1 of 6

Compound: C=C(Cl)c1c(C)cc(C)c(CC#N)c1C
- survivor count (dose: 50.0 mg/kg/injection, schedule: Q01DX009 (ip), vehicle: DMSO): 3 of 6
- survivor count (dose: 100.0 mg/kg/injection, schedule: Q04DX003 (ip), vehicle: DMSO): 6 of 6
- survivor count (dose: 400.0 mg/kg/injection, schedule: Q04DX003 (ip), vehicle: DMSO): 6 of 6

Compound: CCN(C(=S)Nc1cccc(OC)c1)c1ccccc1
- survivor count (dose: 400.0 mg/kg/injection, schedule: Q01DX009 (ip), vehicle: Klucel (hydroxypropylcellulose) (HPC)): 3 of 6

Compound: C/C(=C/c1ccc(/C=C(\C)[N+](=O)[O-])cc1)[N+](=O)[O-]
- survivor count (dose: 20.0 mg/kg/injection, schedule: Q01DX001 (ip), vehicle: acetone): 3 of 6
- survivor count (dose: 40.0 mg/kg/injection, schedule: Q01DX001 (ip), vehicle: acetone): 0 of 6
- survivor count (dose: 75.0 mg/kg/injection, schedule: Q01DX001 (ip), vehicle: acetone): 1 of 6
- survivor count (dose: 150.0 mg/kg/injection, schedule: Q01DX001 (ip), vehicle: acetone): 0 of 6
- survivor count (dose: 300.0 mg/kg/injection, schedule: Q01DX001 (ip), vehicle: acetone): 0 of 6

Compound: CNS(=O)(=O)c1ccc(Cl)cc1
- survivor count [7]: 2 of 6
- survivor count [5]: 1 of 6
- survivor count (dose: 400.0 mg/kg/injection, schedule: Q01DX009 (ip), vehicle: saline): 0 of 6

Compound: Cn1cnc([N+](=O)[O-])c1/N=C/c1ccccc1
- survivor count [6]: 0 of 3

Compound: COc1cccc(C[P+](C/C=C/c2ccccc2)(c2ccccc2)c2ccccc2)c1
- survivor count (dose: 50.0 mg/kg/injection, schedule: Q04DX003 (ip), vehicle: Klucel (hydroxypropylcellulose) (HPC)): 0 of 6 and 1 of 6
- survivor count [1]: 1 of 6
- survivor count (dose: 200.0 mg/kg/injection, schedule: Q04DX003 (ip), vehicle: Klucel (hydroxypropylcellulose) (HPC)): 0 of 6
- survivor count [2]: 0 of 6

Reference: PubChem BioAssay AID248 (DTP/NCI, 2004)
